Measurements: publication PMC12040169 (PLOS Biology, 2025)
The list shows a part of the results.

What follows are molecules tested on T1, CTL2-GFP (C. trachomatis L2/434/Bu, GFP-expressing). Conditions: bulk GFP, single well; 28.5 h, 10 µM; inhibitor.
T1 construct: L2/434/Bu, GFP-expressing
Set-up: species or system HeLa; Intracellular C. trachomatis growth in HeLa cells, bulk GFP fluorescence relative to DMSO

Row | SMILES | % of control remaining [%]
1 | O=C(CN1CCN(c2cc(-c3ccc4ccccc4c3)ncn2)CC1)N1CCCC1 [CBK091064] | 198.691
2 | O=C1NCCCNC(=O)C2(C/C=C/CCOc3ccccc31)CCN(C(=O)CN1CCCC1)CC2 [CBK292052] | 120.845
3 | CC(=O)Nc1ccc(/C(C)=N/NC(=O)c2ccc(CN3CCOCC3)cc2)cc1 [CBK262720] | 127.692
4 | c1ccc(Sc2cccc3ccccc23)nc1 [CBK085856] | 89.9348
5 | O=c1[nH]nc2c(S(=O)(=O)N3CCCCC3)cccn12 [CBK288450] | 122.431
6 | CCC1=NN(c2ccccc2)C(=O)C(CC(=O)Nc2ccccc2)c2cc(OC)c(OC)cc21 (centres unmarked) [CBK260938] | 100
7 | Cc1ccc(OCC(=O)Nc2ccc(N3CCN(Cc4ccccc4)CC3)cc2)cc1C [CBK266085] | 116.756
8 | Cc1cnc(CNC(=O)C2(c3ccccc3)CCCC2)cn1 [CBK149531] | 164.293
9 | NS(=O)(=O)c1ccc(NC(=O)c2cccnc2)cc1 [CBK264488] | 138.57
10 | Cc1ccc(CCC(=O)N2CCCCC2c2nc3ccccc3[nH]2)o1 (centres unmarked) [CBK282316] | 74.8648
11 | Cc1nn(C)c(Cl)c1CN1CCOC(c2ccccc2)C1 (centres unmarked) [CBK305244] | 125.452
12 | COc1ccc([C@]23CN(C)C[C@H]2CCN(C(=O)c2ccc4c(c2)OC(F)(F)O4)C3)cc1OC [CBK075110T] | 118.79
13 | O=C(O)C1Cc2ccccc2C(=O)N1CCc1ccccc1 (centres unmarked) [CBK286592] | 129.179
14 | CC(=O)Nc1ccc(C(=O)NCc2ccc(S(N)(=O)=O)cc2)cc1 [CBK263642] | 120.462
15 | c1ccc(N2CCN(Cc3cncn3C3CCCCC3)CC2)nc1 [CBK307345] | 127.269
16 | COc1cc(CNCc2cnn(C)c2)c(O)c(C(C)(C)C)c1 [CBK304721] | 122.125
17 | C=CCn1c(SCC(=O)Nc2cccc(F)c2)nnc1-c1ccccc1O [CBK269620] | 134.089
18 | COC(=O)c1cccc(CN2CCC3(CC2)NC(=O)Cc2ccccc23)c1 [CBK039807] | 124.111
19 | COc1ccc(C(=O)Nc2nc3c(C)cccc3s2)c(OC)c1 [CBK287301] | 137.187
20 | CN1Cc2ccccc2OC2(CCCN(C(=O)C3CC3)CC2)C1 (centres unmarked) [CBK285131] | 71.344
21 | O=S(=O)(N1CCCCC1)N1CCN(CC(O)COc2ccc3cc(Br)ccc3c2)CC1 (centres unmarked) [CBK269032] | 124.48
22 | CCC(NC(=O)Nc1cc(N2CCOCC2)ccc1Cl)c1nccs1 (centres unmarked) [CBK306519] | 161.413
23 | COc1cc(F)ccc1-c1nc(N)cc2cccnc12 [CBK081176] | 107.252
24 | COc1cc(Nc2cccc(-c3ccco3)n2)cc(OC)c1OC [CBK037724] | 191.154
25 | CSCCN1CCCN(c2nccc(OCc3ccc(Cl)c(Cl)c3)n2)CC1 [CBK083960] | 89.979
26 | Cc1cc2cn([C@@H]3O[C@H](CO)[C@H](O)C3O)c(=O)nc2[nH]1 (some centres unmarked) [CBK201219] | 110.341
27 | Cc1ccc2nc(-c3ccccc3)c(C)c(C(=O)O)c2c1 [CBK270268] | 135.645

Compounds 21–22, quoted:
Row | SMILES | % of control remaining [%]
21 | O=S(=O)(N1CCCCC1)N1CCN(CC(O)COc2ccc3cc(Br)ccc3c2)CC1 (centres unmarked) [CBK269032] | 124.48
22 | CCC(NC(=O)Nc1cc(N2CCOCC2)ccc1Cl)c1nccs1 (centres unmarked) [CBK306519] | 161.413

Following part:

Row | SMILES | % of control remaining [%]
28 | CCN(CC)C(=O)N1CCC(c2ccncc2)CC1 [CBK283503] | 108.83
29 | O=C(CSc1nnc(Cc2cccs2)n1-c1ccccc1)c1c[nH]c2ccccc12 [CBK268290] | 151.261
30 | Cc1ccc(-c2ccc(Nc3ccc(Oc4ccccc4)cc3)nc2)cc1C [CBK037740] | 185.563
31 | CC(C)(C)S(=O)(=O)CC(N)=S [CBK021304] | 138.748
32 | CC1=CCC2C(=O)N(C(CC(C)C)C(=O)O)C(=O)C2C1 (centres unmarked) [CBK287172] | 129.553
33 | CCn1ncc2c1CCCC2NC1CCCN(c2cnn(C)c2)C1=O (centres unmarked) [CBK305316] | 126.032
34 | COc1ccc(S(=O)(=O)N2CCC(C(=O)NCc3cccnc3)CC2)cc1Cl [CBK267613] | 137.159
35 | Cc1cc(C)n(CC(=O)N[C@H]2CC[C@H]2N)c(=O)n1 [CBK307647] | 133.349
36 | Cc1ccc(CCC(=O)N(CC(=O)O)C2CCOCC2)c(C)c1 [CBK304509] | 141.463
37 | CCn1cnc(S(=O)(=O)N2CCC(OCc3ccccc3)CC2)c1 [CBK305228] | 130.526
38 | Cc1c(C(=O)O)sc(S(=O)(=O)N2CCN(C(=O)c3ccc(Cl)cc3)CC2)c1C(=O)O [CBK297123] | 136.706
39 | COc1ccc(C[C@@H]2NC(=O)[C@H]3CN(C(=O)c4cccn4C)CCN3C2=O)cc1 [CBK289616] | 97.8751
40 | O=C(O)c1oc2ccccc2c1CSc1ccccn1 [CBK286981] | 131.635
41 | CC(C)(C)OC(=O)N1CCCC(NC(CO)c2ccco2)CC1 (centres unmarked) [CBK304049] | 101.441
42 | Cc1ccc(C(=O)NC[C@H]2O[C@@H](CC(=O)N3CCCC3)[C@H](O)[C@@H]2O)cc1 [CBK288912] | 84.8703
43 | O=C(Nc1nc(-c2ccco2)c(-c2ccncc2)s1)C1CC1 [CBK284494] | 140.469
44 | O=C(O)C1CCN(C(=O)CSc2nnc(-c3ccccc3F)n2C2CCCC2)CC1 [CBK296971] | 129.573
45 | CCN(NC(=O)c1ccccc1-n1cccc1)c1ccc(C)cc1 [CBK161507] | 98.2918
46 | S=C(NCCn1cc(Br)cn1)NCc1ccco1 [CBK266914] | 151.084
47 | CN(C)CCNCCP(=O)(c1ccccc1)c1ccccc1 [CBK263049] | 100
48 | Clc1nsnc1N1CCOCC1 [CBK019133] | 134.933
49 | CCn1c2ccccc2c2cc(NC(=O)CSc3nnc(-c4ccoc4C)o3)ccc21 [CBK269010] | 124.872
50 | CCOC(=O)CN1CCCN(c2c(F)cc(C#N)cc2F)CC1 [CBK304148] | 99.6012
51 | COC(=O)c1ccsc1NS(=O)(=O)c1ccc(F)cc1 [CBK039060] | 154.343
52 | O=C(c1ccc(F)cc1)[C@H]1CCCN(C(=O)c2cc[nH]n2)C1 [CBK284331] | 117.745
53 | O=C(Nc1ccc2ccccc2c1)N1CCN(C(=O)C2CCCO2)CC1 (centres unmarked) [CBK044043] | 88.5204
54 | CCOc1cccc(-c2ccc(Nc3cccc(NC(=O)c4ccncc4)c3)nc2)c1 [CBK037739] | 122.842

Entries from the list above with bromine:
Row | SMILES | % of control remaining [%]
21 | O=S(=O)(N1CCCCC1)N1CCN(CC(O)COc2ccc3cc(Br)ccc3c2)CC1 (centres unmarked) [CBK269032] | 124.48
46 | S=C(NCCn1cc(Br)cn1)NCc1ccco1 [CBK266914] | 151.084

(further entries)

Row | SMILES | % of control remaining [%]
55 | COc1cc(/N=C(\N)Nc2nc(=O)cc(CSc3ccc(C)cc3)[nH]2)cc(OC)c1 [CBK265532] | 125.651
56 | O=S(=O)(NC1c2cccc3cccc(c23)C1N1CCNCC1)c1ccc(Cl)cc1 (centres unmarked) [CBK264082] | 116.854
57 | Cc1nc(C2CCCN(C(=O)C3CCCO3)C2)c2sccn12 (centres unmarked) [CBK282241] | 96.5174
58 | Cn1nccc1NS(=O)(=O)c1cc(C(F)(F)F)cc(C(F)(F)F)c1 [CBK062090] | 132.247
59 | CN(Cc1nc2c(s1)CCCC2)C(=O)COc1ncnc2ccccc12 [CBK307151] | 143.272
60 | CCN1CCN(c2ccc(NC(=O)Cc3cn4ccsc4n3)cc2)CC1 [CBK305892] | 141.846
61 | CC(=O)Nc1ccccc1NC(=O)c1ccccc1CCc1ccccc1 [CBK268621] | 118.462
62 | CC(C)N1CCOC[C@H]1c1nc(-c2ccc(S(C)(=O)=O)cc2)c[nH]1 [CBK289301] | 117.013
63 | CCCc1cc(C(=O)N2CCCN(Cc3cnn(CC)c3)CC2)[nH]n1 [CBK305293] | 98.822
64 | O=S(=O)(c1ccc(OC(F)(F)F)cc1)N1CCCCC1CO (centres unmarked) [CBK051527] | 100.4
65 | Cc1cc(I)ccc1NCC(=O)NN [CBK261738] | 123.192
66 | CCn1cc(CN2CCCN(C(=O)c3cc(C4CC4)on3)CC2)cn1 [CBK305401] | 116.165
67 | COCCCN1C(=O)C(O)=C(C(=O)c2ccc(Cl)cc2)C1c1cccc(O)c1 (centres unmarked) [CBK264892] | 139.28
68 | Cc1cc(NS(=O)(=O)c2cc(OCC(N)=O)c(C)cc2Cl)no1 [CBK266456] | 176.979
69 | O=C(O)CC(NC(=O)c1ccco1)c1ccc(F)cc1 (centres unmarked) [CBK057988] | 112.406
70 | O=C(CN1C(=O)N2CCCN=C2c2ccc(Cl)cc21)NC1CC1 [CBK284388] | 98.5406
71 | CC(C)Oc1cccc2cccc(C(O)CN(C)C)c12 (centres unmarked) [CBK009892] | 124.043
72 | CC(=O)c1ccc(NC(=O)CSc2ncccc2C(=O)O)cc1 [CBK299798] | 118.616
73 | O=C(Nc1ccc(I)cc1)c1ccc(CN2CCc3ccccc3C2)cc1 [CBK262672] | 138.532
74 | COc1cc(C(CC(=O)O)C(=O)O)c([N+](=O)[O-])cc1OC (centres unmarked) [CBK268541] | 129.669
75 | COc1ccc(NC(=O)CSc2nc(N)cc(O)n2)c([N+](=O)[O-])c1 [CBK267904] | 100.475
76 | CC(=O)c1ccc(-c2nc(-c3occc3C=O)cnc2N)cc1 [CBK064081] | 138.191
77 | O=C(c1ccc(F)cc1)N1C2CCC1CC(O)(c1ccccc1F)C2 (centres unmarked) [CBK121719] | 110.791
78 | CCn1ncc(CN(CCN(C)C)Cc2cccs2)c1C [CBK282958] | 101.478
79 | COc1ccc(C(C)C)cc1-c1cnc(N)c(NCc2ccncc2)n1 [CBK063695] | 146.571
80 | CCOC(=O)c1cnc(N2CCOCC2)nc1NCCc1c[nH]c2ccccc12 [CBK093605] | 126.359
